In article doi:10.1101/2020.06.08.139675:
Results are given in words; binding and its absence hold for the method and conditions named. Binding seen in cells or lysates may run through a third protein. Some entries that bind do so weakly or less than the wild type.

Protein sequences, listed by entry. Tags and fused reporters are not part of them. Residues count along the entry.
UniProt Q5S007, residues 1-552: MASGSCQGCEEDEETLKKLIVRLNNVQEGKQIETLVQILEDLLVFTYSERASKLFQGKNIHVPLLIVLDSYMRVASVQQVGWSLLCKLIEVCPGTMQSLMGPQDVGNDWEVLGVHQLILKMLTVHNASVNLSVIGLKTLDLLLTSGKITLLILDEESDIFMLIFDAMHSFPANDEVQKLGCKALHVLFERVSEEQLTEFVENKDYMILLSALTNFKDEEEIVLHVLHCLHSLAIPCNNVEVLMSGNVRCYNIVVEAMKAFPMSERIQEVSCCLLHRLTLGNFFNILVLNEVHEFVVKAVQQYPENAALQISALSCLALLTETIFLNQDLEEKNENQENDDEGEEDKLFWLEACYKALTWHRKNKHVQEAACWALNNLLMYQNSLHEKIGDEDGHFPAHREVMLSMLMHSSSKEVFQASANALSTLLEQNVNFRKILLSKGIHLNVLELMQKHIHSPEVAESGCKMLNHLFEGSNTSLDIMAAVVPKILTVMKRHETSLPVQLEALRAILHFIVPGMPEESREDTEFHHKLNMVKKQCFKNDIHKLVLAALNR

Molecular target: 6-His LRRK2 1-552 (UniProt Q5S007)
Assay: pull-down

binding	Binder
binds	transgenic Rab29 (protein, UniProt Q91YQ1 1-204) MGSRDHLFKVLVVGDAAVGKTSLVQRYSQDSFSKHYKSTVGVDFALKVLQWSDSEMVRLQLWDIAGQERFTSMTRLYYRDASACVIMFDVTNATTFSNSQRWKQDLDSKLTLPSGEPVPCLLLANKSDLSPWAVSRDQIDRFSKENGFTGWTETSVKENKNINEAMRVLVEKMMNNSREDVMSLSTQGNYINLQAKPSSGWTCC
binds	endogenously expressed wildtype Rab29 (protein, UniProt Q91YQ1 1-204) MGSRDHLFKVLVVGDAAVGKTSLVQRYSQDSFSKHYKSTVGVDFALKVLQWSDSEMVRLQLWDIAGQERFTSMTRLYYRDASACVIMFDVTNATTFSNSQRWKQDLDSKLTLPSGEPVPCLLLANKSDLSPWAVSRDQIDRFSKENGFTGWTETSVKENKNINEAMRVLVEKMMNNSREDVMSLSTQGNYINLQAKPSSGWTCC
